# PubChem BioAssay AID1259265 | Sanger Institute | 2017
# Test: 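Confirm primary screen knock-down and drug pairs in SW620 colorectal cancer cells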 (follow-up of hits)
# System: SW620 human colorectal cancer cells
# Reagents: single siRNA against human genes
# Treatment: anchor drug given a day after transfection: BYL719 at 1 µM, cetuximab at 5 µg/ml, trametinib at 10 nM; DMSO alone as the comparison arm
# Read-out: 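Viability normalised to control pool 2 (non-targeting) and averaged over replicates; synergy score compares combined siRNA and drug effect against each effect alone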
# Scale: synergy score with trametinib: higher = stronger synergy (synthetic lethal) with trametinib; synergy score with BYL719: higher = stronger synergy (synthetic lethal) with BYL719; synergy score with cetuximab: higher = stronger synergy (synthetic lethal) with cetuximab; viability, siRNA alone (DMSO) and viability, siRNA plus trametinib: higher = more surviving cells
# Call rule: 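Synergistic (synthetic lethal) when the synergy score tops 0.10 with trametinib, BYL719 or cetuximab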
# The deposit covers 160 reagents; this is a part drawn at random. Of all reagents, 31 (19%) got an active call. 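Calls refer to single siRNAs; agreement across several siRNAs per gene and other cell lines is not shown.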 Reagents against one gene are numbered here. Viability is capped at 1. The record does not give: the amount of reagent, the time to read-out.
gene symbol,siRNA no.,synergy score with trametinib,synergy score with BYL719,synergy score with cetuximab,"viability, siRNA alone (DMSO) (fraction of control)","viability, siRNA plus trametinib (fraction of control)",activity call
KCNH8 (GeneID 131096),1,0.0181,-0.268,-0.171,0.684,0.353,inactive
KCNH8 (GeneID 131096),2,0.281,0.0744,0.00414,1,0.261,active
KCNH8 (GeneID 131096),3,-0.167,-0.302,-0.122,1,0.709,inactive
KCNH8 (GeneID 131096),4,0.146,-0.0119,0.0385,0.802,0.289,active
PLK1 (GeneID 5347),1,-0.00709,-0.0327,-0.0635,0.156,0.0918,inactive
PLK1 (GeneID 5347),2,-0.0166,-0.0506,0.0373,0.213,0.132,inactive
PLK1 (GeneID 5347),3,0.00479,-0.0316,-0.0164,0.221,0.115,inactive
PLK1 (GeneID 5347),4,-0.00941,-0.073,-0.0401,0.0917,0.0591,inactive

Entries listed so far whose target name begins with P or p:
gene symbol,siRNA no.,synergy score with trametinib,synergy score with BYL719,synergy score with cetuximab,"viability, siRNA alone (DMSO) (fraction of control)","viability, siRNA plus trametinib (fraction of control)",activity call
PLK1 (GeneID 5347),1,-0.00709,-0.0327,-0.0635,0.156,0.0918,inactive
PLK1 (GeneID 5347),2,-0.0166,-0.0506,0.0373,0.213,0.132,inactive
PLK1 (GeneID 5347),3,0.00479,-0.0316,-0.0164,0.221,0.115,inactive
PLK1 (GeneID 5347),4,-0.00941,-0.073,-0.0401,0.0917,0.0591,inactive

Further entries:
gene symbol,siRNA no.,synergy score with trametinib,synergy score with BYL719,synergy score with cetuximab,"viability, siRNA alone (DMSO) (fraction of control)","viability, siRNA plus trametinib (fraction of control)",activity call
MAPK4 (GeneID 5596),1,-0.0814,-0.193,-0.177,0.937,0.59,inactive
MAPK4 (GeneID 5596),2,0.0111,-0.146,-0.062,0.91,0.483,inactive
MAPK4 (GeneID 5596),3,-0.0765,-0.0149,-0.0409,0.953,0.594,inactive
MAPK4 (GeneID 5596),4,0.0411,-0.136,-0.114,0.461,0.209,inactive
NLK (GeneID 51701),1,-0.0919,-0.253,-0.153,0.86,0.559,inactive
NLK (GeneID 51701),2,0.121,-0.0243,0.0161,0.832,0.33,active
NLK (GeneID 51701),3,-0.209,-0.306,-0.0702,1,0.752,inactive
NLK (GeneID 51701),4,-0.057,-0.126,-0.0962,1,0.6,inactive
PIK3CA (GeneID 5290),1,0.0371,-0.0983,0.0103,0.983,0.496,inactive
PIK3CA (GeneID 5290),2,-0.114,-0.113,-0.0643,0.547,0.411,inactive
PIK3CA (GeneID 5290),3,0.0848,0.0994,-0.0889,0.98,0.447,inactive
PIK3CA (GeneID 5290),4,-0.0157,-0.132,-0.0512,0.857,0.481,inactive
